Results are given as percent effect.
How 0% and 100% were set is not recorded. Most values in the screen are low, and negative values occur.
This is an unselected part of the compounds tested.

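Whole-parasite assay of Trypanosoma brucei over 72 hours; the read-out is not stated. Tested at 10 µM. Direction is inferred from retests: higher values go with stronger inhibition. Values scatter widely below zero; nearly all retest evidence comes from the higher of the two concentrations used. About 2,700 compounds were tested under these conditions; 0.51% (about 14) showed 50% or more at least once.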

* CCc1n[nH]c(C2CN(C(=O)Cc3cccs3)CCO2)n1 (stereo not shown) | -50.53%
* CCOc1ncccc1NC(=O)N1CCC(CN2CCOCC2)CC1 | -40.54%
* COc1c(CNCc2ccc(OCC(N)=O)cc2)c(C)nn1C | -6.53%
* Cc1ccc(NC(=O)N2CCCC2)c(OCC2CCCO2)c1 (stereo not shown) | -38.05%
* CC(=O)N(Cc1ncc(C(C)C)o1)C1CCN(CCC#N)C1 (stereo not shown) | -80.66%
* CC(C)(C)c1cc(C(=O)NCCN2CCCS2(=O)=O)[nH]n1 | -78.47%
* CCN1CCN(C2CCN(Cc3nc(CCOC)no3)CC2)C1=O | -8.483%
* O=C1CCCc2[nH]c(=O)c(C(=O)N(Cc3ccsc3)C3CC3)cc21 | -103.2%
* Cn1ccnc1CN1CCN(Cc2ccc(C#N)cc2)CC1 | -27.6%
* COc1cccc(C(NCc2ccc(SC)cc2)c2nccn2C)c1 (stereo not shown) | -34.89%
* CCN1CCOC(CNCc2ccc(OCc3ccccn3)cc2)C1 (stereo not shown) | -32.81%
* Cc1cc(CN2CCN(CC(O)c3ccc(Cl)cc3)CC2)no1 (stereo not shown) | 0.8257%
* CCc1cnc(CN(C(C)=O)C2CCN(Cc3nccn3C)C2)o1 (stereo not shown) | -73.44%
* CCN(CC)CC1CCN(C(=O)CCn2cccn2)CC1 | -38.58%
* O=C(CCc1ccc(F)c(F)c1)N1CCCCC1Cn1cccn1 (stereo not shown) | -67.13%
* CC(NCc1cc(F)ccc1F)c1ccc(OCC(=O)NC2CC2)cc1 (stereo not shown) | -15.23%
* Cc1cc(C(=O)N2CCCC2c2noc(C(C)C)n2)c(C)o1 (stereo not shown) | -40.8%
* Cc1csc(N2CCN(CC(=O)N3CCNC3=O)CC2C)n1 (stereo not shown) | -102.2%
* CNc1nc(CNC(=O)Nc2cccc(-c3ncc(C)o3)c2)cs1 | -76.04%
* O=C(CCNc1ncccn1)N1CCCC(n2cccn2)C1 (stereo not shown) | -21.27%
* CC(=O)NCc1ccc(C(=O)N2CCCC2c2c(C)nn(C)c2C)o1 (stereo not shown) | -51.57%
* CCc1nc(C)c(C(=O)NCCN2CCCC2)s1 | -56%
* CCn1cc(CN2CCCN(C(=O)c3cccn3C)CC2)cn1 | -46.49%
* COCc1nc(CN(CC(N)=O)C(C)C)cs1 | -3.814%
* CNc1cc2c(nn1)CCN(C(=O)c1cc(C)no1)C2 | -64.07%
* Cn1ccnc1CC1CCCN(Cc2noc(C3CC3)n2)C1 (stereo not shown) | 1.249%
* CNC(=O)CCS(=O)(=O)Cc1cc(Cl)c2c(c1)OCCCO2 | 3.883%
* CCc1cccc(N2CCC(NC(=O)c3ccco3)CC2)c1 | -6.636%
* NC(=O)Cn1cc(NC(=O)N2CCCCCC2)cn1 | -62.62%
* OC1(CN2CCOC(CNc3cccnn3)C2)CCCCC1 (stereo not shown) | -63.74%
* O=S(=O)(CCCNC1CCc2ncnn2C1)c1ccccc1 (stereo not shown) | -37.9%
* CCc1noc(CN2CCN(c3nccs3)CC2)n1 | -57.01%

The first 3 entries again:

CCc1n[nH]c(C2CN(C(=O)Cc3cccs3)CCO2)n1 (stereo not shown) read -50.53%.
CCOc1ncccc1NC(=O)N1CCC(CN2CCOCC2)CC1 read -40.54%.
COc1c(CNCc2ccc(OCC(N)=O)cc2)c(C)nn1C read -6.53%.

From ChEMBL document CHEMBL3988442, “University of Dundee, Small-Polar-MMV Screening Library” (2021).